In publication PMC6642263:
No constants are given. Whether binding was seen depends on the method and setting. Some results given as binding are weak or reduced against the parent protein; the word gives no strength.

Experiments:
His-HDAC1 = His-HDAC1 (UniProt Q13547); test: pull-down; His pull-down: His-HDAC1 or His-HDAC2 (beads bound, from E. coli) incubated overnight with GST-p53 (eluted, from E. coli), without or with FLAG-ZEB1 (FLAG peptide eluted, from 293T cells); both purified
His-HDAC2 = His-HDAC2 (UniProt Q92769); test: as above

## GST-p53 (from UniProt P04637 1-393)
His-HDAC1
  binding: binds weakly
His-HDAC2
  binding: binds weakly
